Test results as given in the supplement of paper PMC4807443.
Counter-ions that a name gives are not always drawn. The list shows a part of the results. The numbers are fractions of the control, whatever unit the source prints. Most values lie at the level of the controls, where differences are scatter.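 MIN6 is a mouse insulinoma beta-cell line that stably carries a lentiviral reporter in which the Pdx1 and Ins1 promoters each drive a nucleus-targeted fluorescent protein; cells were counted by automated imaging with a Hoechst nuclear stain. In the screen, a drug was a possible hit when its Ins1 promoter readout lay beyond two median absolute deviations from the DMSO controls while Pdx1 activity stayed near normal.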

Test system: MIN6
Experiment: % Pdx1+ Ins1+ (double-positive, mature) cells relative to DMSO control (fold of DMSO control); higher = more mature Ins1 promoter-active cells
Details: 8.5 µM; 48 h; glucose 5 mM

Which “% Pdx1+ Ins1+” value does the source give for `NCC1(CC(=O)O)CCCCC1` [Gabapentin] here?
The value was 1.03.

For `O=c1cccc2n1C[C@@H]1CNC[C@H]2C1` [Cytisine (-)], which “% Pdx1+ Ins1+” value is on record?
Its value is 0.841.

With `CCOC(=O)c1cncn1[C@H](C)c1ccccc1` [Etomidate] as the compound, how does the “% Pdx1+ Ins1+” value read?
The value was 0.883.

Which “% Pdx1+ Ins1+” value does the source give for `CN1[C@@H]2C[C@@H](OC(=O)[C@H](CO)c3ccccc3)C[C@H]1[C@@H]1O[C@@H]12` [Scopolamine hydrochloride] here?
The value was 1.04.

With `N[C@@H]1C[C@H]1c1ccccc1` [Tranylcypromine hydrochloride] as the compound, how does the “% Pdx1+ Ins1+” value read?
Its value is 1.1.

How did the “% Pdx1+ Ins1+” value turn out when `COc1cc(C(=O)OC2CC3CCC(C2)N3C)ccc1O` (stereo not given) [Fillalbin] was run?
Its value is 0.824.

`NCC(CC(=O)O)c1ccc(Cl)cc1` (racemic) [Baclofen (R,S)] was tested. Which “% Pdx1+ Ins1+” value did it give?
The value was 1.06.

How did the “% Pdx1+ Ins1+” value turn out when `CN[C@@H]1[C@@H](O)[C@@H](O[C@@H]2[C@@H](O)[C@H](O[C@H]3O[C@H](CN)CC[C@H]3N)[C@@H](N)C[C@H]2N)OC[C@]1(C)O.CN[C@@H]1[C@@H](O)[C@@H](O[C@@H]2[C@@H](O)[C@H](O[C@H]3O[C@H]([C@@H](C)N)CC[C@H]3N)[C@@H](N)C[C@H]2N)OC[C@]1(C)O.CN[C@@H]1[C@@H](O)[C@@H](O[C@@H]2[C@@H](O)[C@H](O[C@H]3O[C@H]([C@@H](C)NC)CC[C@H]3N)[C@@H](N)C[C@H]2N)OC[C@]1(C)O` [Gentamicine sulfate] was run?
The value was 1.01.

With `O=C1CC[C@@]2(O)[C@H]3Cc4ccc(O)c5c4[C@@]2(CCN3CC2CC2)[C@H]1O5` [Naltrexone hydrochloride dihydrate] as the compound, how does the “% Pdx1+ Ins1+” value read?
The value was 1.06.

How did the “% Pdx1+ Ins1+” value turn out when `COc1ccc2c(c1O)-c1c(OC)c(OC)cc3c1[C@H](C2)N(C)CC3` [Isocorydine (+)] was run?
Its value is 0.891.

How did the “% Pdx1+ Ins1+” value turn out when `CN1CCC2(C)c3cc(O)ccc3N(C)C12` (single isomer, unassigned; (-)) [(-)-Eseroline fumarate salt] was run?
Its value is 0.858.

Which “% Pdx1+ Ins1+” value does the source give for `CCN1C[C@]2(C)CC[C@H](O)[C@]34C1[C@@H](C[C@H]23)[C@@]1(O)C[C@H](OC)[C@H]2C[C@@H]4[C@@H]1[C@H]2O` [Karakoline] here?
Its value is 0.888.

For `CC(NC(C)(C)C)C(=O)c1cccc(Cl)c1` (stereo not given) [Bupropion hydrochloride], which “% Pdx1+ Ins1+” value is on record?
The value was 0.557.

With `O=c1ccc2cc(O[C@@H]3O[C@H](CO)[C@@H](O)[C@H](O)[C@H]3O)c(O)cc2o1` [Esculin Hydrate] as the compound, how does the “% Pdx1+ Ins1+” value read?
Its value is 0.924.

How did the “% Pdx1+ Ins1+” value turn out when `O=c1c2ccccc2[se]n1-c1ccccc1` [Ebselen] was run?
The value was 0.817.

Which “% Pdx1+ Ins1+” value does the source give for `CC(=O)O[C@H]1C[C@@H]2CC[C@@H]3[C@H](CC[C@@]4(C)[C@H]3C[C@H]([N+]3(C)CCCCC3)[C@@H]4OC(C)=O)[C@@]2(C)C[C@@H]1[N+]1(C)CCCCC1` [Pancuronium bromide] here?
Its value is 0.955.

Which “% Pdx1+ Ins1+” value does the source give for `COc1c2c(cc3c1OCO3)CCN(C)C2` [Hydrocotarnine hydrobromide] here?
Its value is 0.865.

How did the “% Pdx1+ Ins1+” value turn out when `C=CCN1CC[C@]23c4c5ccc(O)c4O[C@H]2C(=O)CC[C@@]3(O)[C@H]1C5` [Naloxone hydrochloride] was run?
The value was 0.972.

`C[C@]12C[C@H]3S[C@H]3C[C@@H]1CC[C@@H]1[C@@H]2CC[C@]2(C)[C@@H](O)CC[C@@H]12` [Epitiostanol] was tested. Which “% Pdx1+ Ins1+” value did it give?
The value was 0.869.

`COP(=O)(OC)C(O)C(Cl)(Cl)Cl` (stereo not given) [Trichlorfon] was tested. Which “% Pdx1+ Ins1+” value did it give?
The value was 1.22.

For `C[C@H]1CC[C@]2(NC1)O[C@H]1C[C@H]3[C@@H]4CC[C@H]5C[C@@H](O)CC[C@]5(C)[C@H]4CC[C@]3(C)[C@H]1[C@@H]2C` [Tomatidine], which “% Pdx1+ Ins1+” value is on record?
The value was 0.922.

How did the “% Pdx1+ Ins1+” value turn out when `C(#CCN1CCCC1)CN1CCCC1` [Tremorine dihydrochloride] was run?
The value was 1.03.

With `C[C@]12CCC(=O)C=C1C=C[C@@H]1[C@@H]2CC[C@@]2(C)[C@H]1CC[C@@]2(O)CCC(=O)O` [Canrenoic acid potassium salt] as the compound, how does the “% Pdx1+ Ins1+” value read?
The value was 1.

With `C[C@H](N)[C@H](O)c1ccc(O)c(O)c1` [Levonordefrin] as the compound, how does the “% Pdx1+ Ins1+” value read?
Its value is 0.746.

`CC(C)N(CCC(C(N)=O)(c1ccccc1)c1ccccn1)C(C)C` (stereo not given) [Disopyramide] was tested. Which “% Pdx1+ Ins1+” value did it give?
Its value is 1.09.

`CCN1C[C@]2(C)CC[C@H](OC)[C@@]34C1[C@]1(OCO[C@@]15C[C@H](OC)[C@H]1C[C@]3(O)[C@@H]5[C@H]1OC)[C@@H](OC(C)=O)[C@H]24` [Deltaline] was tested. Which “% Pdx1+ Ins1+” value did it give?
The value was 0.897.

For `CC[C@H]1CN2CCc3cc(OC)c(OC)cc3[C@@H]2C[C@@H]1C[C@H]1NCCc2cc(O)c(OC)cc21` [Cephaeline dihydrochloride heptahydrate], which “% Pdx1+ Ins1+” value is on record?
The value was 0.745.

Which “% Pdx1+ Ins1+” value does the source give for `CN1[C@@H]2CC[C@H]1C[C@@H](OC(=O)[C@H](CO)c1ccccc1)C2` [Hyoscyamine (L)] here?
Its value is 0.873.

For `COc1ccc(CN2CCNCC2)c(OC)c1OC` [Trimetazidine dihydrochloride], which “% Pdx1+ Ins1+” value is on record?
Its value is 0.963.

With `CC(C)[N+](C)(CCC(C(N)=O)(c1ccccc1)c1ccccc1)C(C)C` [Isopropamide iodide] as the compound, how does the “% Pdx1+ Ins1+” value read?
Its value is 0.873.

How did the “% Pdx1+ Ins1+” value turn out when `C/C=C1/C[N+]2(C)CCC34C(=C(C=O)[C@H]1C[C@@H]32)Nc1ccccc14` (stereo not given in full) [Fluorocurarine chloride] was run?
Its value is 0.848.

How did the “% Pdx1+ Ins1+” value turn out when `C#C[C@]1(O)CC[C@H]2[C@@H]3CCC4=CC(=O)CC[C@]4(C)[C@H]3CC[C@@]21C` [Ethisterone] was run?
Its value is 1.12.

With `C=C1[C@H]2C[C@@]3([C@@H]1O)[C@@H](C[C@@H]2O)[C@]12[C@@H]4C[C@H]3[C@H]1N(CC)C[C@]4(C)CC[C@@H]2O` [Napelline] as the compound, how does the “% Pdx1+ Ins1+” value read?
Its value is 0.808.

With `O=c1[nH]c2ccccc2n1CCCN1CCC(n2c(=O)[nH]c3cc(Cl)ccc32)CC1` [Domperidone maleate] as the compound, how does the “% Pdx1+ Ins1+” value read?
Its value is 0.915.

For `C[C@]12CC[C@H]3[C@@H](CC[C@]4(O)C[C@@H](O)CC[C@]34C=O)[C@@]1(O)CC[C@@H]2C1=CC(=O)OC1` [Strophanthidin], which “% Pdx1+ Ins1+” value is on record?
Its value is 0.882.

Which “% Pdx1+ Ins1+” value does the source give for `CCN(CC)C(=O)N[C@H]1C=C2c3cccc4[nH]cc(c34)C[C@H]2N(C)C1` [Lisuride (S)(-)] here?
The value was 1.08.

With `S=C(NC1CCCCC1)N1CCC(c2cnc[nH]2)CC1` [Thioperamide maleate] as the compound, how does the “% Pdx1+ Ins1+” value read?
Its value is 0.786.

With `CN1[C@@H]2CCC[C@H]1CC(=O)C2` [Pseudopelletierine hydrochloride] as the compound, how does the “% Pdx1+ Ins1+” value read?
The value was 0.925.

Which “% Pdx1+ Ins1+” value does the source give for `NC(N)=NOCC[C@H](N)C(=O)O` [Canavanine sulfate monohydrate (L,+)] here?
The value was 0.894.

For `CCN(CC)C(=O)N[C@@H]1CC2c3cccc4[nH]cc(c34)CC2N(C)C1` (stereo partly drawn) [S(-)-terguride hydrogen maleate], which “% Pdx1+ Ins1+” value is on record?
The value was 0.89.

Which “% Pdx1+ Ins1+” value does the source give for `CC1=NCCc2c1[nH]c1cc(O)ccc21` [Harmalol hydrochloride dihydrate] here?
The value was 0.985.

With `C=C[C@H]1CN2CC[C@H]1C[C@H]2[C@H](O)c1ccnc2ccccc12` [(-)-Cinchonidine] as the compound, how does the “% Pdx1+ Ins1+” value read?
The value was 0.88.

With `COc1ccc2c(c1)[C@]13CCCC[C@@H]1[C@H](C2)N(C)CC3` [Dextromethorphan hydrobromide monohydrate] as the compound, how does the “% Pdx1+ Ins1+” value read?
The value was 0.812.

Which “% Pdx1+ Ins1+” value does the source give for `C[C@]12CC[C@@H](O)C[C@@H]1CC[C@@H]1[C@@H]2CC[C@]2(C)C(=O)CC[C@@H]12` [Androsterone] here?
Its value is 0.94.

Which “% Pdx1+ Ins1+” value does the source give for `CC1=CC(=O)C2=C(C)C[C@H](O)[C@@H]3[C@H](OC(=O)[C@H]3C)[C@H]12` [Austricine] here?
The value was 0.97.

`CNCC(O)c1ccc(O)cc1` (racemic) [(+,-)-Synephrine] was tested. Which “% Pdx1+ Ins1+” value did it give?
The value was 0.982.

With `CC(Cc1ccc(O)cc1)NCC(O)c1cc(O)cc(O)c1` (stereo not given) [Fenoterol hydrobromide] as the compound, how does the “% Pdx1+ Ins1+” value read?
Its value is 1.15.

For `C=C[C@H]1CN2CC[C@H]1C[C@@H]2[C@@H](O)c1ccnc2ccccc12` [Cinchonine], which “% Pdx1+ Ins1+” value is on record?
The value was 0.947.

For `C=C1[C@@H]2CC[C@H]3[C@]4(C)C[C@H](O[C@@H]5O[C@H](CO)[C@@H](OS(=O)(=O)O)[C@H](OS(=O)(=O)O)[C@H]5OC(=O)CC(C)C)C[C@@H](C(=O)O)[C@H]4CC[C@]3(C2)[C@@H]1O` [Atractyloside potassium salt], which “% Pdx1+ Ins1+” value is on record?
Its value is 0.968.

For `C1CCc2nnnn2CC1` [Pentylenetetrazole], which “% Pdx1+ Ins1+” value is on record?
The value was 1.06.

`COc1cc2c(cc1O)[C@@H]1Cc3ccc(OC)c(O)c3CN1CC2` [Scoulerine] was tested. Which “% Pdx1+ Ins1+” value did it give?
The value was 0.776.

How did the “% Pdx1+ Ins1+” value turn out when `COc1cc2c3cc1Oc1cc(ccc1O)C[C@@H]1c4c(cc(OC)c(O)c4Oc4cccc(c4)C[C@@H]3N(C)CC2)CC[N+]1(C)C` [Tubocurarine chloride pentahydrate (+)] was run?
Its value is 0.857.

For `COc1ccc2[nH]c3c(c2c1)CCN=C3C` [Methoxy-6-harmalan], which “% Pdx1+ Ins1+” value is on record?
The value was 0.741.

For `CC(C)[C@@]1(NC(=O)[C@@H]2C[C@@H]3c4cccc5[nH]cc(c45)C[C@H]3N(C)C2)O[C@@]2(O)[C@@H]3CCCN3C(=O)[C@H](Cc3ccccc3)N2C1=O` [Dihydroergocristine mesylate], which “% Pdx1+ Ins1+” value is on record?
The value was 0.817.

Which “% Pdx1+ Ins1+” value does the source give for `O=C1C=C2C=C[C@@H]3C[C@@]2(O1)[C@H]1CCCCN31` [Securinine] here?
The value was 1.07.

How did the “% Pdx1+ Ins1+” value turn out when `COc1ccn(C)c(=O)c1C#N` [Ricinine] was run?
The value was 0.871.

`C[C@]12CCC(=O)C=C1CC[C@@H]1[C@@H]2C(=O)C[C@]2(C)C(=O)CC[C@@H]12` [Adrenosterone] was tested. Which “% Pdx1+ Ins1+” value did it give?
The value was 0.923.

How did the “% Pdx1+ Ins1+” value turn out when `CC[C@H](C)[C@H]1O[C@]2(C=C[C@@H]1C)C[C@@H]1C[C@@H](C/C=C(\C)[C@@H](O[C@H]3C[C@H](OC)[C@@H](O[C@H]4C[C@H](OC)[C@@H](O)[C@H](C)O4)[C@H](C)O3)[C@@H](C)/C=C/C=C3\CO[C@@H]4[C@H](O)C(C)=C[C@@H](C(=O)O1)[C@]34O)O2.CO[C@H]1C[C@H](O[C@H]2[C@H](C)O[C@@H](O[C@@H]3/C(C)=C/C[C@@H]4C[C@@H](C[C@]5(C=C[C@H](C)[C@@H](C(C)C)O5)O4)OC(=O)[C@@H]4C=C(C)[C@@H](O)[C@H]5OC/C(=C\C=C\[C@@H]3C)[C@]54O)C[C@@H]2OC)O[C@@H](C)[C@@H]1O` [Avermectin B1] was run?
The value was 0.571.

`CN(C)Cc1c[nH]c2ccccc12` [Gramine] was tested. Which “% Pdx1+ Ins1+” value did it give?
Its value is 0.961.

`C[N+]1(C)CCOC(O)(c2ccc(-c3ccc(C4(O)C[N+](C)(C)CCO4)cc3)cc2)C1` (stereo not given) [Hemicholinium bromide] was tested. Which “% Pdx1+ Ins1+” value did it give?
The value was 1.01.
